Results taken from patent publication US7687495B2, “Substituted piperidines” (Speedel Experimenta AG, priority 2005, dated 2010).
Some entries share one result that the patent states for a list of compounds. Some ranges recur; such a range may be that of the whole group of compounds.

target: T1, renin (Homo sapiens, UniProt P00797); assay: formation of angiotensin I in human plasma, radioimmunoassay (Nussberger et al.); type: biochemical; settings: angiotensin I determined by radioimmunoassay, read-out: IC50, inhibition of the formation of angiotensin I
T1 construct: This test measures the formation of angiotensin I in human plasma; from tissue; host or cells: human plasma
T1 sequence (P00797 67-406): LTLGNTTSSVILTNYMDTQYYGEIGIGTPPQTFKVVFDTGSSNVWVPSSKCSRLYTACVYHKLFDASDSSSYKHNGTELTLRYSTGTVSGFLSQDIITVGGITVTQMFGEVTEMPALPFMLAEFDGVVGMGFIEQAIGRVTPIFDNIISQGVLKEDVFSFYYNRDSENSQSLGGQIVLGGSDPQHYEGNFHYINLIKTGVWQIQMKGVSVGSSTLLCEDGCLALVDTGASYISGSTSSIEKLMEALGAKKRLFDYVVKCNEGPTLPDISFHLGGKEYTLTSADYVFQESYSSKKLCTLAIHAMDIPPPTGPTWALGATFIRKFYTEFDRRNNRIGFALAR

IC50, 0.1 to 10 µM:
COCCCN1CCOc2ccc(CO[C@H]3CN[C@@H](C[C@@H](O)C(C)C)C[C@@H]3c3ccc(OC)cc3)cc21 [Example 53, (R)-1-{(2R,4R,5R)-4-(4-Methoxy-phenyl)-5-[4-(3-methoxy-propyl)-3,4-dihydro-2H-benzo[1,4]oxazin-6-ylmethoxy]-piperidin-2-yl}-3-methyl-butan-2-ol]
COCCCN1CCOc2ccc(CO[C@H]3CN[C@H](CC(=O)NCc4ccccc4)C[C@@H]3c3ccc(OC)cc3)cc21 [Example 12, N-Benzyl-2-{(2S,4R,5R)-4-(4-methoxy-phenyl)-5-[4-(3-methoxy-propyl)-3,4-dihydro-2H-benzo[1,4]oxazin-6-ylmethoxy]-piperidin-2-yl}-acetamide]
COCCCN1CCOc2ccc(CO[C@H]3CN[C@@H](CCN(C)C(C)=O)C[C@@H]3c3ccc(OC)cc3)cc21 [Example 33]
COCCCN1CCOc2ccc(CO[C@H]3CN[C@H](CCNC(=O)c4ccccc4)C[C@@H]3c3ccc(OC)cc3)cc21 [Example 21]
COCCCN1CCOc2ccc(CO[C@H]3CN[C@@H](CO)C[C@@H]3c3ccc(OC)cc3)cc21 [Example 120]
CNC(=O)C[C@@H]1C[C@H](c2ccc(OC)cc2)[C@@H](OCc2ccc3c(c2)N(CCCOC)CCO3)CN1 [Example 10, 2-{(2S,4R,5R)-4-(4-Methoxy-phenyl)-5-[4-(3-methoxy-propyl)-3,4-dihydro-2H-benzo[1,4]oxazin-6-ylmethoxy]-piperidin-2-yl}-N-methyl-acetamide]
COCCCN1CCOc2ccc(CO[C@H]3CN[C@@H](C[C@@H](C)N(C)C)C[C@@H]3c3ccc(OC)cc3)cc21 [Example 40, ((R)-2-{(2R,4R,5R)-4-(4-Methoxy-phenyl)-5-[4-(3-methoxy-propyl)-3,4-dihydro-2H-benzo[1,4]oxazin-6-ylmethoxy]-piperidin-2-yl}-1-methyl-ethyl)-dimethyl-amine]
